No constants are given. Whether binding was seen depends on the method and setting. Binding seen in cells or lysates may run through a third protein. Some results given as binding are weak or reduced against the parent protein; the word gives no strength.
Assays:
[1] = biological target: T1, adenosine A3 receptor (mouse (endogenous in primary neurons and microglia)) (UniProt Q61618); experiment: proximity ligation; in situ PLA (Duolink) in fixed, permeabilised primary striatal, hippocampal and cortical neurons from C57BL/6J mouse fetuses; mouse anti-A2AR and rabbit anti-A3R; negative control without anti-A3R
T1 sequence: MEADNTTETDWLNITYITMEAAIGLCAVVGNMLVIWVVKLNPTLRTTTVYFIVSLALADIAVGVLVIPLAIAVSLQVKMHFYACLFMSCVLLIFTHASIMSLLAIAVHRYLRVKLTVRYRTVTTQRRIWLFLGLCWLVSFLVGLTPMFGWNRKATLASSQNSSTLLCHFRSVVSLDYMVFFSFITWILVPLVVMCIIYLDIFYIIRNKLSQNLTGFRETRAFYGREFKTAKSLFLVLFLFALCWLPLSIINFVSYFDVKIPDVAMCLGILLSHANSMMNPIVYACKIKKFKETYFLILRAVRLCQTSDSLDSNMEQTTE

Protein sequences, listed by entry. Tags and fused reporters are not part of them. Lines headed by an entry give the natural chain unless they say otherwise; changes in a name come on top.
UniProt Q60613: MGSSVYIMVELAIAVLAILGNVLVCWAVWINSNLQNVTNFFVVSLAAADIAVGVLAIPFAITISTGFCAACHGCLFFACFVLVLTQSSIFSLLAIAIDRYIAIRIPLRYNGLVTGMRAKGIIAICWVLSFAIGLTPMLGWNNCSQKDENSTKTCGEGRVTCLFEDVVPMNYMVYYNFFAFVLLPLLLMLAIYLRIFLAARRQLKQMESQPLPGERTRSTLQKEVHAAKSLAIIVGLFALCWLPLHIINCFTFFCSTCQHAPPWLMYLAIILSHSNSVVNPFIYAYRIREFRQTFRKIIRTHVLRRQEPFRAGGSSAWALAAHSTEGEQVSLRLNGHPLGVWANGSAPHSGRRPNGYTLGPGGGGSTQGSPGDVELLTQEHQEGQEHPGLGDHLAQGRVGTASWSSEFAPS

[2] = biological target: T1, adenosine A3 receptor (mouse (endogenous in primary neurons and microglia)); experiment: proximity ligation; in situ PLA (Duolink) in fixed, permeabilised primary microglia from mouse pups: resting, activated with LPS and IFN-gamma, and from APPSw,Ind transgenic mice; mouse anti-A2AR and rabbit anti-A3R; negative control without anti-A3R

- binding [1]: binds
- binding [2]: binds
Substance: adenosine A2A receptor (from UniProt Q60613 1-410)

From article PMC8869194
